Measurements as given in patent US9145346B1, “Process for 2,2,4,4-tetramethylcyclobutane-1,3-diol crystallization” (Eastman Chemical Company, priority 2014, dated 2015).
Further values from the same series stand in other lists.

Assay: Solubility (saturated concentration) of cis-TMCD and trans-TMCD in various solvents, by gas chromatography
Format: physicochemical
Description: All concentrations were measured by gas chromatography. Water concentration was measured by Karl Fischer titrations.
The solubility of cis-TMCD and trans-TMCD in various solvents was determined by charging cis-TMCD, trans-TMCD, and the solvent or solvents of interest into a 120 ml jacketed glass vessel. The vessel was equipped with a stir bar in order to provide mixing and the jacket was used to control the temperature of the vessel contents. The vessel was equipped with charging and sampling ports on top of the vessel.
The slurry was allowed to stand for a time sufficient for the solids to saturate the solvent at the desired temperature. At that time, a sample of the solution was withdrawn from the cell using a fritted pipette so as to remove only the liquid phase. The sample was analyzed for cis-TMCD and trans-TMCD isomer content. These values represent the saturated concentration of each isomer at the sampling temperature.
After this, the cell contents were heated to the next desired temperature and the contents were held for another time interval sufficient to allow the slurry to equilibrate. A sample was then taken of the solution and analyzed. Following this procedure, solubility data was collected up to the final desired temperature.
The reported solubility of each isomer at a given temperature for a given solvent is expressed as a weight % relative to the saturated concentration of the isomer at the highest temperature reported for a given solvent.

CC1(C)[C@H](O)C(C)(C)[C@@H]1O [cis-TMCD, cis-2,2,4,4-tetramethylcyclobutane-1,3-diol]
Relative solubility (Acetone, 6.2° C., relative to 54.7° C.): 28% relative wt %
Relative solubility (Acetone, 16.3° C., relative to 54.7° C.): 37% relative wt %
Relative solubility (Acetone, 25.7° C., relative to 54.7° C.): 51% relative wt %
Relative solubility (Acetone, 40.5° C., relative to 54.7° C.): 73% relative wt %
Relative solubility (Acetone, 54.7° C., relative to 54.7° C.): 100% relative wt %
Relative solubility (Benzene, 5.6° C., relative to 70.1° C.): 3% relative wt %
Relative solubility (Benzene, 12.7° C., relative to 70.1° C.): 3% relative wt %
Relative solubility (Benzene, 21.2° C., relative to 70.1° C.): 6% relative wt %
Relative solubility (Benzene, 30.9° C., relative to 70.1° C.): 10% relative wt %
Relative solubility (Benzene, 40.5° C., relative to 70.1° C.): 18% relative wt %
Relative solubility (Benzene, 50.3° C., relative to 70.1° C.): 32% relative wt %
Relative solubility (Benzene, 61.4° C., relative to 70.1° C.): 60% relative wt %
Relative solubility (Benzene, 70.1° C., relative to 70.1° C.): 100% relative wt %
Relative solubility (CHDM, 59.5° C., relative to 106.9° C.): 12% relative wt %
Relative solubility (DIBK, 6.2° C., relative to 94.4° C.): 5% relative wt %
Relative solubility (DIBK, 13.3° C., relative to 94.4° C.): 6% relative wt %
Relative solubility (DIBK, 25.2° C., relative to 94.4° C.): 9% relative wt %
Relative solubility (DIBK, 35.1° C., relative to 94.4° C.): 12% relative wt %
Relative solubility (DIBK, 44.1° C., relative to 94.4° C.): 16% relative wt %
Relative solubility (DIBK, 61.7° C., relative to 94.4° C.): 30% relative wt %
Relative solubility (DIBK, 71.0° C., relative to 94.4° C.): 43% relative wt %
Relative solubility (DIBK, 93.9° C., relative to 94.4° C.): 97% relative wt %
Relative solubility (DIBK, 94.4° C., relative to 94.4° C.): 100% relative wt %
Relative solubility (Ethylene Glycol, 16.5° C., relative to 91.4° C.): 15% relative wt %
Relative solubility (Ethylene Glycol, 91.4° C., relative to 91.4° C.): 100% relative wt %
Relative solubility (MIBK, 15.8° C., relative to 80.5° C.): 17% relative wt %
Relative solubility (MIBK, 26.0° C., relative to 80.5° C.): 23% relative wt %
Relative solubility (MIBK, 35.5° C., relative to 80.5° C.): 30% relative wt %
Relative solubility (MIBK, 50.5° C., relative to 80.5° C.): 46% relative wt %
Relative solubility (MIBK, 61.3° C., relative to 80.5° C.): 59% relative wt %
Relative solubility (MIBK, 70.8° C., relative to 80.5° C.): 77% relative wt %
Relative solubility (MIBK, 80.5° C., relative to 80.5° C.): 100% relative wt %
Relative solubility (Toluene, 15.0° C., relative to 99.7° C.): 1% relative wt %
Relative solubility (Toluene, 26.2° C., relative to 99.7° C.): 2% relative wt %
Relative solubility (Toluene, 40.5° C., relative to 99.7° C.): 4% relative wt %
Relative solubility (Toluene, 54.9° C., relative to 99.7° C.): 8% relative wt %
Relative solubility (Toluene, 69.8° C., relative to 99.7° C.): 15% relative wt %
Relative solubility (Toluene, 80.2° C., relative to 99.7° C.): 26% relative wt %
Relative solubility (Toluene, 89.8° C., relative to 99.7° C.): 42% relative wt %
Relative solubility (Toluene, 99.7° C., relative to 99.7° C.): 100% relative wt %
Relative solubility (Water, 6.2° C., relative to 79.3° C.): 52% relative wt %
Relative solubility (Water, 16.3° C., relative to 79.3° C.): 55% relative wt %
Relative solubility (Water, 25.7° C., relative to 79.3° C.): 51% relative wt %
Relative solubility (Water, 40.5° C., relative to 79.3° C.): 50% relative wt %
Relative solubility (Water, 54.7° C., relative to 79.3° C.): 56% relative wt %
Relative solubility (Water, 70.1° C., relative to 79.3° C.): 79% relative wt %
Relative solubility (Water, 79.3° C., relative to 79.3° C.): 100% relative wt %
Relative solubility (Xylenes, 4.2° C., relative to 99.7° C.): 0% relative wt %
Relative solubility (Xylenes, 15.0° C., relative to 99.7° C.): 1% relative wt %
Relative solubility (Xylenes, 26.2° C., relative to 99.7° C.): 1% relative wt %
Relative solubility (Xylenes, 40.5° C., relative to 99.7° C.): 3% relative wt %
Relative solubility (Xylenes, 54.9° C., relative to 99.7° C.): 7% relative wt %
Relative solubility (Xylenes, 69.8° C., relative to 99.7° C.): 16% relative wt %
Relative solubility (Xylenes, 80.2° C., relative to 99.7° C.): 26% relative wt %
Relative solubility (Xylenes, 99.7° C., relative to 99.7° C.): 100% relative wt %
Relative solubility (Xylenes, −5.1° C., relative to 99.7° C.): 1% relative wt %
Relative solubility (n-Decane, 37.8° C., relative to 89.6° C.): 3% relative wt %
Relative solubility (n-Decane, 52.9° C., relative to 89.6° C.): 10% relative wt %
Relative solubility (n-Decane, 69.5° C., relative to 89.6° C.): 27% relative wt %
Relative solubility (n-Decane, 79.3° C., relative to 89.6° C.): 53% relative wt %
Relative solubility (n-Decane, 89.6° C., relative to 89.6° C.): 100% relative wt %
Relative solubility (n-Heptane, 23.0° C., relative to 69.9° C.): 3% relative wt %
Relative solubility (n-Heptane, 30.5° C., relative to 69.9° C.): 4% relative wt %
Relative solubility (n-Heptane, 40.4° C., relative to 69.9° C.): 13% relative wt %
Relative solubility (n-Heptane, 49.9° C., relative to 69.9° C.): 27% relative wt %
Relative solubility (n-Heptane, 60.6° C., relative to 69.9° C.): 54% relative wt %
Relative solubility (n-Heptane, 69.9° C., relative to 69.9° C.): 100% relative wt %
